Measured values from PubChem BioAssay AID2551 (National Center for Advancing Translational Sciences (NCATS), 2010).
The whole screen tested about 310,000 compounds, of which about 17,000 (5.5%) were called active. The shares of active, inactive and inconclusive entries below differ from those in the screen. Calls come from the whole dose curve; as a rule, active = well fitted inhibition curve with a large enough effect; inconclusive = small, poorly fitted or top-dose-only effect, or effect the other way; inactive = no such curve, though single readings can be large or run the other way. Where the call is inconclusive, the potency comes from a doubtful curve fit.

Protein sequences, listed by entry. Tags and fused reporters are not part of them. Lines headed by an entry give the natural chain unless they say otherwise; changes in a name come on top.
UniProt P51450: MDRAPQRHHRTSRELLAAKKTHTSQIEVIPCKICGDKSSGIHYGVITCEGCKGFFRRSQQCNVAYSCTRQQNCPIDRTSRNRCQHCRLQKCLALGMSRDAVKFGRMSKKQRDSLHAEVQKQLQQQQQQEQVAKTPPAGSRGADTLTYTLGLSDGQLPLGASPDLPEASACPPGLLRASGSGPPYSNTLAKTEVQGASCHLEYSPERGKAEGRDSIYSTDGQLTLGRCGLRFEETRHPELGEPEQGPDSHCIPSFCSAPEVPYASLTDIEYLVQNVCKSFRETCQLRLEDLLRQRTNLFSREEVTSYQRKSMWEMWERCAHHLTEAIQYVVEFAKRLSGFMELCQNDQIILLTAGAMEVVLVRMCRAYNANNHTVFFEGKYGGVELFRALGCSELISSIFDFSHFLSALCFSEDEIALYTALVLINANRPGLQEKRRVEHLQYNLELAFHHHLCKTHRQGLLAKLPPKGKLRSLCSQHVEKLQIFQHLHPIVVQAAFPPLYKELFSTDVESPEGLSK

Target: Nuclear receptor ROR-gamma (Mus musculus) (UniProt P51450)
Experiment: qHTS for inhibitors of ROR gamma transcriptional activity; note: nearly all actives have a fitted effect of over 60% in size
Conditions: Drosophila S2 Gal4-RORgamma UAS-luciferase reporter, 20 h; activity change, negative = inhibition: at 53.6 µM (top of the series)
How it was run: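 Drosophila Schneider cells stably carrying a metallothionein-driven Gal4 DBD–ROR gamma fusion and a UAS-Photinus luciferase reporter were exposed to compound for 1 hr, then induced with copper sulfate (700 uM final) for 20 hr at ambient temperature before luminescence reading.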
% is set by controls: 0 for no effect and ±100 for the full control effect; potency is the fitted concentration of half-maximal effect.

| SMILES | Potency | activity change, negative = inhibition |
| --- | --- | --- |
| CCOC(=O)c1sc(NC(=O)CSc2nnc(C(C)C)n2CC)nc1C | inconclusive: 14.1 µM [activator, single point] | – |
| CCCC(=O)N1CCN(c2nc3ccc(Cl)cc3s2)CC1 | inconclusive: 12.6 µM [activator, partial curve] | – |
| CCOc1cccc2c1OC(c1cc(OC)c(OC)c(OC)c1)N1N=C(c3ccc(C)o3)CC21 (stereo not given) | inconclusive: 31.6 µM [inhibitor, single point] | – |
| COc1cc(Nc2nnc(C)s2)c(Cl)cc1Cl | – | inactive: -9.2% |
| Cc1ccc2nc(C)cc(Nc3ccc([N+](=O)[O-])cc3)c2c1 | active: 7.08 µM | – |
| COc1cc(NC(=O)c2cc(S(=O)(=O)N3CCc4ccccc43)cn2C)cc(OC)c1OC | inconclusive: 25.1 µM [activator, single point] | – |
| Cc1ccc(S(=O)(=O)C(C#N)c2nc3ccccc3nc2N2CCCC2)cc1 (stereo not given) | – | inactive: -32.5% |
| COc1cc(S(=O)(=O)N2CCN(Cc3ccc4c(c3)OCO4)CC2)c(C)cc1C | inconclusive: 17.8 µM [activator, partial curve] | – |
| Cc1cn(Cc2ccccc2Cn2cc(C)c(=O)[nH]c2=O)c(=O)[nH]c1=O | – | inactive: -1.17% |
| Cc1ccc(/C=C2/SC(=S)N(CCC(=O)NCCCN3CCOCC3)C2=O)cc1 | – | inactive: 28.6% |
| O=C(NCC1CCCO1)c1cccc(-n2cnnn2)c1 (stereo not given) | – | inactive: 3.18% |
| Cc1cc2cc(CNC(=O)Nc3ccccc3)ccc2n1C | inconclusive: 25.1 µM [activator, single point] | – |
| CCOc1ccccc1CNc1ncnc2ccc(-c3c(C)noc3C)cc12 | active: 39.8 µM | – |
| c1ccc(-c2csc3ncnc(N4CCN(Cc5ccc6c(c5)OCO6)CC4)c23)cc1 | – | inactive: 8.73% |
| CCc1ccc(OCC(=O)N/N=C(\C)c2ccc(O)cc2O)cc1 | active: 12.6 µM | – |
| COc1cc(C2CC(=O)Oc3c2c(=O)n(C)c2ccccc32)cc(OC)c1OC (stereo not given) | – | inactive: -4.74% |
| O=C(NC1CCCc2ccccc21)C12CC3CC(CC(O)(C3)C1)C2 (stereo not given) | inconclusive: 12.6 µM [activator, single point] | – |
| Cc1ccc(C(=O)O)cc1N1C(=O)c2cccc3c([N+](=O)[O-])ccc(c23)C1=O | active: 7.94 µM | – |
| C=CCOc1ccc(C2NC(=S)NC(c3ccccc3)=C2C(C)=O)cc1OC (stereo not given) | active: 14.1 µM | – |
| Cc1ccc([N+](=O)[O-])cc1-c1ccc(/C=C(\C#N)c2[nH]nc(N)c2C#N)o1 | inconclusive: 35.5 µM [inhibitor, single point] | – |
| C/C(=N\NC(=O)c1ccc(O)cc1)c1ccc2c(c1)Nc1ccccc1S2 | inconclusive: 15.8 µM [inhibitor, single point] | – |
| Cc1ccccc1C(=O)N1CCc2cc(-c3csc(NC(=O)CN4CCCC4)n3)ccc21 | inconclusive: 11.2 µM [inhibitor, partial curve, poor fit] | – |
| CC(C)NC(=O)c1ccc(C2SCC(=O)N2Cc2ccccc2)cc1 (stereo not given) | – | inactive: 33.4% |
| CCNc1nc(C(=O)O)nc(N2CCOCC2)n1 | – | inactive: 9% |
| O=C(CCCOc1ccc(Cl)cc1Cl)N1CCc2ccccc2C1 | inconclusive: 35.5 µM [inhibitor, single point] | – |

An excerpt from further up, for reference:

| SMILES | Potency | activity change, negative = inhibition |
| --- | --- | --- |
| COc1cc(Nc2nnc(C)s2)c(Cl)cc1Cl | – | inactive: -9.2% |
| Cc1ccc2nc(C)cc(Nc3ccc([N+](=O)[O-])cc3)c2c1 | active: 7.08 µM | – |

Continued.

| SMILES | Potency | activity change, negative = inhibition |
| --- | --- | --- |
| O=C(CCCOc1ccc(Cl)cc1Cl)NCCCO | – | inactive: 8.3% |
| COc1ccc(NC(=O)C2CCCN(S(=O)(=O)c3c(C)n[nH]c3C)C2)cc1OC (stereo not given) | inconclusive: 1.26 µM [activator, partial curve] | – |
| Cc1cccc(NC(=O)Cn2cc(C=O)c3ccccc32)c1 | inconclusive: 10 µM [activator, partial curve] | – |
| CCCNC(=O)c1ccc(N2CCC3(CC2)CC(c2ccccc2)=NO3)c(NC(=O)c2ccco2)c1 | – | inactive: 32.8% |
| CCN1/C(=C/C(=O)c2ccco2)Sc2ccccc21 | – | inactive: -35.8% |
| Cc1ccn2c(C(=O)NN=C3CCCCCCC3)c(C)nc2c1 | inconclusive: 10 µM [inhibitor, partial curve, poor fit] | – |
| CCn1c(=O)n(CC(=O)Nc2ccc(F)cc2)c(=O)c2ccccc21 | – | inactive: 11.4% |
| CCOc1ccccc1NC(=O)C1COc2ccccc2O1 (stereo not given) | inconclusive: 35.5 µM [activator, single point] | – |
| O=C(C1CC1)N1CCc2cc(S(=O)(=O)NCc3ccccc3)ccc21 | inconclusive: 14.1 µM [activator, single point] | – |
| C=C1CCC[C@]2(C)C[C@H]3OC(=O)[C@H](CNCCc4ccccc4OC)C3CC12 (stereo not given in full) | inconclusive: 35.5 µM [inhibitor, single point] | – |
| O=C(O)c1cncc(Br)c1 | – | inactive: 10.8% |
| c1ccc2[nH]c(SCc3ccc(-c4nnco4)cc3)nc2c1 | – | inactive: 34.1% |
| COc1ccc(N2CCN(CC(=O)Nc3ccc(SC(F)F)cc3)CC2)cc1 | inconclusive: 14.1 µM [activator, single point] | – |
| COCCOc1ccc(C(F)(F)F)cc1Nc1nc2ccccc2o1 | – | inactive: 18.7% |
| Cc1ccc(-n2c3nc(=O)[nH]c(=O)c-3cc3cc([N+](=O)[O-])ccc32)cc1C | inconclusive: 35.5 µM [inhibitor, single point] | – |
| Cc1n[nH]c(=O)nc1N/N=C/c1ccc(O)c([N+](=O)[O-])c1 | active: 11.2 µM | – |
| CC(NC(=S)Nc1cccc(F)c1)C(c1cccs1)N1CCOCC1 (stereo not given) | active: 8.91 µM | – |
| CCOc1ccc(NC(=S)NCCN2CCN(Cc3ccccc3)CC2)cc1 | active: 11.2 µM | – |
| Cc1ccc(C)c(N2CCN(CCCNC(=O)CCC(=O)N3CCOc4ccc(Cl)cc43)CC2)c1 | inconclusive: 25.1 µM [inhibitor, single point] | – |
| O/N=C/c1ccc(OCc2ccccc2)c(Br)c1 | – | inactive: -5.5% |
| CC(=O)c1c(N2CCN(c3ccc(F)cc3)CC2)nc(=S)n(Cc2ccccc2)c1C | inconclusive: 15.8 µM [inhibitor, single point] | – |
| COc1ccc(-c2cn3nc(SCC(=O)NCC4CCCO4)ccc3n2)cc1 (stereo not given) | inconclusive: 17.8 µM [inhibitor, single point] | – |
| Cc1ccc(OCC(=O)NC(=S)Nc2ccc3c4c(cccc24)CC3)cc1 | inconclusive: 20 µM [inhibitor, single point] | – |
| O=C(c1cc2nc(-c3ccco3)cc(C(F)(F)F)n2n1)N1CCN(Cc2ccccc2)CC1 | – | inactive: 30.9% |
| CC(C)(C)NC(=S)NC(=O)C12CC3CCC(CC(C3)C1)C2 | active: 2.82 µM | – |

2 entries picked at random from those above:

| SMILES | Potency | activity change, negative = inhibition |
| --- | --- | --- |
| Cc1ccn2c(C(=O)NN=C3CCCCCCC3)c(C)nc2c1 | inconclusive: 10 µM [inhibitor, partial curve, poor fit] | – |
| CC(NC(=S)Nc1cccc(F)c1)C(c1cccs1)N1CCOCC1 (stereo not given) | active: 8.91 µM | – |

(more compounds)

| SMILES | Potency | activity change, negative = inhibition |
| --- | --- | --- |
| CC(=O)c1ccc(NC(=O)C2=CC(c3cccs3)=NS(=O)(=O)N2C)cc1 | inconclusive: 35.5 µM [activator, single point] | – |
| CC1(CCc2ccccc2)NC(=S)N(c2ccc(Cl)cc2)N1 (stereo not given) | active: 10 µM | – |
| CCOC(=O)/C(=N/Nc1ccc(OC)cc1)N1CCCc2ccccc21 | – | inactive: 16.7% |
| CC(C)(C)C(=O)N1CCN(c2ncnc3scc(-c4ccccc4)c23)CC1 | – | inactive: 37.8% |
| COc1ccc(OCc2n[nH]c(=S)o2)cc1 | inconclusive: 35.5 µM [inhibitor, single point] | – |
| CCN1C(=O)[C@H]2[C@H]3[C@H](O)[C@H](O)C/C(=N\O[C@H](C)c4cn([C@H](CO)Cc5ccccc5)nn4)[C@@H]3CC[C@H]2C1=O | – | inactive: 5.96% |
| COC(=O)c1ccc(NC(=O)Nc2ccc([N+](=O)[O-])cc2)cc1 | inconclusive: 14.1 µM [activator, single point] | – |
| O=C(Nc1nnc(-c2ccc3c(c2)CCCC3)o1)c1ccc(Cl)cc1Cl | active: 1.58 µM | – |
| C=CCC(Nc1ccc(OC)cc1)C(=O)OCC (stereo not given) | – | inactive: 14.5% |
| CCCn1nnnc1NCc1ccccc1C | inconclusive: 35.5 µM [inhibitor, single point] | – |
| CCCNC(=O)Nc1cc(OCC)c(N2CCOCC2)cc1OCC | inconclusive: 0.126 µM [activator, single point] | – |
| CCOC(=O)c1nc(Nc2ccc(C)cc2)c2ccccc2n1 | inconclusive: 14.1 µM [activator, single point] | – |
| O=C(N/N=C/c1ccc2c(c1)OCO2)c1cccs1 | – | inactive: -15.3% |
| CCOc1ccccc1N(C(=O)c1snc(C(N)=O)c1N)C(C(=O)NCc1ccccc1)c1ccc(O)cc1 (stereo not given) | – | inactive: 33.7% |
| C/C(CCc1oc2ccc(Cl)cc2c1-c1ccc(C)o1)=N\O | inconclusive: 0.891 µM [activator, single point] | – |
| Cc1cc(C(=O)CN2C(=O)NC3(CCCCC3)C2=O)c(C)n1Cc1ccc2c(c1)OCO2 | inconclusive: 12.6 µM [activator, single point] | – |
| COc1cccc(/C=N/c2oc(-c3ccccc3)cc2C#N)c1O | inconclusive: 17.8 µM [inhibitor, single point] | – |
| Cc1[nH]n(-c2ccc([N+](=O)[O-])cc2)c(=O)c1C=NCCc1c(C)[nH]c2ccccc12 | – | inactive: 16.5% |
| CC(=O)N1CCC(=NNC(=O)c2cc3ccccc3cc2O)CC1 | active: 10 µM | – |
| O=C(Nc1cccc(F)c1)c1cccc(S(=O)(=O)N2CCOCC2)c1 | inconclusive: 11.2 µM [activator, partial curve] | – |
| CCn1c2ccccc2c2nnc(NN)nc21 | inconclusive: 20 µM [inhibitor, single point] | – |
| CCCN1C(=O)c2ccccc2NC1c1cc(OC)c(OC)c(OC)c1 (stereo not given) | inconclusive: 10 µM [activator, partial curve] | – |
| Cc1ccc(C(=O)N2CCN(c3ccc([N+](=O)[O-])c(NCc4cccnc4)c3)CC2)cc1 | inconclusive: 15.8 µM [activator, partial curve, poor fit] | – |
| CCCc1cc(-c2nc(-c3ccc(C)cc3)cs2)ccn1 | inconclusive: 35.5 µM [inhibitor, single point] | – |
| Cc1oc(=O)c(NC(=O)c2ccccc2)cc1C(=O)c1ccccc1 | inconclusive: 31.6 µM [inhibitor, single point] | – |
